{"source": "PubChem BioAssay AID1259308, NCATS | 2017", "purpose": "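Genes whose loss raises luciferase production in HEK293 cells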 (primary screen)", "cells": "human HEK293 embryonic kidney cells stably expressing firefly luciferase (HEK-CMV-Luc2-Hygro)", "reagents": "single siRNA against human genes, 0.8 pmol siRNA per well", "timing": "72 h", "detection": "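Reporter luminescence and viable-cell signal on separate replicate plates, given as percent of non-targeting control and median/MAD z-scores, plus per-cell luciferase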", "reading the numbers": "total luciferase, z-score: higher = more reporter protein produced", "hit rule": "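An siRNA counts as active if its total luciferase robust z-score exceeds 3; genes with two or more such siRNAs out of three were retested with fresh siRNAs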", "meaning of the calls": "active = raised luciferase; inactive = no rise", "note": "Shown is one part, drawn at random, of about 59,000 reagents. About 1,510 of them (2.6%) were called active. 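Calls use total luciferase alone and ignore viability, so some active siRNAs may act by altering cell number.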 Not all columns of the deposit are shown. No sequences are given here."}
{"Gene": "HTR1B (GeneID 3351)", "PubChem SID": "SID160775438", "total luciferase, z-score": 1.61, "Call": "inactive"}
{"Gene": "HTR1B (GeneID 3351)", "PubChem SID": "SID160775440", "total luciferase, z-score": -0.858, "Call": "inactive"}
{"Gene": "HTR1B (GeneID 3351)", "PubChem SID": "SID160775441", "total luciferase, z-score": -1.47, "Call": "inactive"}
{"Gene": "PCDHAC2 (GeneID 56134)", "PubChem SID": "SID160744847", "total luciferase, z-score": -0.147, "Call": "inactive"}
{"Gene": "PCDHAC2 (GeneID 56134)", "PubChem SID": "SID160744848", "total luciferase, z-score": -0.0946, "Call": "inactive"}
{"Gene": "PCDHAC2 (GeneID 56134)", "PubChem SID": "SID160744849", "total luciferase, z-score": -2.48, "Call": "inactive"}

Already shown: entries from further up.
{"Gene": "HTR1B (GeneID 3351)", "PubChem SID": "SID160775440", "total luciferase, z-score": -0.858, "Call": "inactive"}
{"Gene": "HTR1B (GeneID 3351)", "PubChem SID": "SID160775441", "total luciferase, z-score": -1.47, "Call": "inactive"}

Next entries follow.
{"Gene": "EIF2S1 (GeneID 1965)", "PubChem SID": "SID160759084", "total luciferase, z-score": -1.96, "Call": "inactive"}
{"Gene": "EIF2S1 (GeneID 1965)", "PubChem SID": "SID160759095", "total luciferase, z-score": -2.55, "Call": "inactive"}
{"Gene": "EIF2S1 (GeneID 1965)", "PubChem SID": "SID160759106", "total luciferase, z-score": -3.04, "Call": "inactive"}
{"Gene": "SFR1 (GeneID 119392)", "PubChem SID": "SID160755710", "total luciferase, z-score": 0.0814, "Call": "inactive"}
{"Gene": "SFR1 (GeneID 119392)", "PubChem SID": "SID160755711", "total luciferase, z-score": -0.0409, "Call": "inactive"}
{"Gene": "SFR1 (GeneID 119392)", "PubChem SID": "SID160755712", "total luciferase, z-score": 1.63, "Call": "inactive"}
